Laboratory results reported in publication doi:10.1101/2021.02.15.431217.
Results are given in words; binding and its absence hold for the method and conditions named. Binding seen in cells or lysates may run through a third protein. Some entries that bind do so weakly or less than the wild type.

Chains of the proteins cited; added tags and fusions are not shown.
UniProt P25963: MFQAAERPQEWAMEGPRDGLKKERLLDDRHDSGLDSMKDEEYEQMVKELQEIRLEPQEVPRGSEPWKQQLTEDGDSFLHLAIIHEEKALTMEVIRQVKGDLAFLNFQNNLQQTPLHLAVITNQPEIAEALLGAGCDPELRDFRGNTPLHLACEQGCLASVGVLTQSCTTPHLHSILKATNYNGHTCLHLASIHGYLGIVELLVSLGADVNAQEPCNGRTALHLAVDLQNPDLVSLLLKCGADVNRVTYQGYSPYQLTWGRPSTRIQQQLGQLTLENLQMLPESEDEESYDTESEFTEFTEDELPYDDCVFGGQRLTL

Target: biotinylated H4 (aa1-23) peptide, K residues mutated to A (H4K5,8,12,16A) (UniProt P62805)
Assay: pull-down

With “non-SUMOylated p-IκBα (≈37 kDa), endogenous in HCT-116 cells (from UniProt P25963 1-317)” the binding was “binds”.
